Whole data set: some 33,000 sequences, median “E-score (-0.5 to 0.5)” near -0.0014, cut for the highest 2% near 0.25. The list shows a part of the results.
Molecular target: T1, Cad1 (UniProt P24813)
T1 sequence: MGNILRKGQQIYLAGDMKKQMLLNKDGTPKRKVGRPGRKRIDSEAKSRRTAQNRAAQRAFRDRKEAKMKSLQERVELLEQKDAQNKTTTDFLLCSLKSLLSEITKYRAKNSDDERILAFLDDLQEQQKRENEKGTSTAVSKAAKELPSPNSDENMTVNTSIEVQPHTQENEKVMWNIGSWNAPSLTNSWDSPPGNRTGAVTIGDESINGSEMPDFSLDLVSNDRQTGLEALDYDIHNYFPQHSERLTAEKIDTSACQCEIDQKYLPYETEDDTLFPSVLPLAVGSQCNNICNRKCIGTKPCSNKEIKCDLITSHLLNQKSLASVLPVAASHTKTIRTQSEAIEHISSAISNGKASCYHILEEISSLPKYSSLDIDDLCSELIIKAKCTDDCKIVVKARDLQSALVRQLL
Assay: PBM E-score (8-mer binding enrichment) (E-score (-0.5 to 0.5)); higher = stronger / more preferred TF binding
Conditions: protein concentration: 100 nM; construct: GST-full length
Outline: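 PURExpress in vitro transcription/translation supplied GST-tagged yeast transcription factors, either full-length or DNA-binding domain. Applied at about 100-200 nM to universal all-10-mer Agilent arrays double-stranded by primer extension, the bound protein was detected with fluorescent anti-GST. E-scores, modified Wilcoxon-Mann-Whitney statistics, were given by the Universal PBM Analysis Suite to ungapped eight-base words pooled with their reverse complements after masliner normalisation.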

Sequence | PBM E-score
GAGCAGGC | -0.0138
AGCCCCGA | -0.153
ATCATAAG | 0.0855
TAGGCCAA | 0.0604
GTGGGTAA | -0.136
GACAGGCA | -0.13
ACTGAAGT | -0.0257
ATTCGATC | 0.0616
GGTATAGA | -0.0165
AAAGTATT | 0.0404
CGGTGTAA | -0.0121
CACGCGCC | 0.0308
AAACCTTG | -0.115
TCCATCAA | 0.0278
GGAGGTGA | 0.0201
CGTAGGAG | -0.0583
ACTGGTCC | -0.117
ATAACTAA | 0.146
CACGTCAG | 0.0462
ATGTTTAC | 0.121
AAGTATCT | -0.0194
GCGCAGAA | 0.262
AGTCAACC | -0.128
GATGCTTA | -0.168
GGCTGCAC | 0.0227

Sequence | PBM E-score
GGCATTAA | -0.0935
ATAATAAT | 0.161
ACATTCGA | -0.0398
ACCCCCGC | -0.238
AGCAGGAT | 0.0257
CGCTCAAC | 0.103
GGGATATA | -0.0288
AGCCGGGC | -0.068
GAACAGAC | 0.0866
GTTGGGAA | 0.024
CCGTCGCG | 0.0507
AAATTTGT | 0.277
AGGAAGAT | -0.00586
GAGAAGAC | -0.125
ATTCCGTG | 0.173
ACTATCTA | 0.224
CAGAAGAG | -0.107
CCGAGAGG | -0.222
GTTCGGGA | 0.166
CAGCCTCG | 0.207
GAGCAAGA | -0.0134
GGTGTTTA | 0.00798
GTGAGATA | -0.0227
CCTGCCCG | -0.0347
AGAATGTG | 0.0352

Sequence | PBM E-score
CGTACAAA | 0.188
AGACTAAA | -0.00769
CACGCCAG | -0.077
ATCCGAGC | -0.0221
CCACGAAG | -0.129
CCGTGCCG | -0.0563
CTTTACCA | 0.00321
ACTTGTTA | -0.0872
ACCCGCAA | -0.284
CGAACCTA | -0.0293
ATCTTCTC | -0.0637
CTGCGCAG | -0.16
CCTGGATC | -0.142
CTCACGCA | 0.208
CCATGCCC | -0.277
CTGGGCCA | -0.173
ATTATAAC | 0.0512
AGATCCGC | -0.0043
CAGCACAG | 0.17
CAACGATA | 0.174
ATGCCAAC | -0.027
AAATCTAG | 0.0389
GTGTTAGA | 0.0752
GCGACTGA | -0.0289
AGGAGTCG | -0.219

Sequence | PBM E-score
CACAGCGG | -0.0663
AATAGGGA | -0.0788
GAACAATA | 0.199
GCTGGCAA | 0.0981
ATTAGTGC | 0.353
TCAGGCGA | -0.0232
ATCTACGC | 0.102
CAAGAATA | 0.161
CATACTGC | 0.00867
CCCTACCG | -0.112
CAGGCGGG | -0.153
TGGTAGAA | 0.0454
TAAAAGAA | 0.0891
GTTCAAAC | 0.0152
ATGAAGAG | 0.0613
AACAGTCA | 0.0298
ACAGTCAT | -0.0411
ACCGCTCC | -0.124
CGGTAACC | -0.0228
AGTGGCAC | -0.148
ATGACTCA | 0.195
AAGTGAGG | -0.149
CTTCGAAA | -0.0423
ACTGTCAT | 0.0949
AGATTTAC | 0.0822

Sequence | PBM E-score
GAACCTGC | -0.018
AAGCCGTC | 0.0241
ATGGTACC | -0.0348
AAACAGGC | -0.0715
GGAGAGAA | -0.207
AAGAACAA | 0.217
CACAACGG | -0.109
CATGGCCG | -0.0819
CTTCGATC | -0.00496
TGCACACA | 0.0945
ATGGAAGG | -0.204
CCTTGAGC | -0.0881
GATCCGTA | -0.0959
AAAACACA | 0.0947
AAAAAAAG | 0.0283
TGGGCTAA | -0.0882
CCTCGGCG | 0.0729
AACGGTCG | 0.0263
AAGTCGAC | 0.256
AGGAGCCC | -0.0882
GATGAAAA | 0.172
CTTCAACA | 0.15
AAATGCTC | -0.0562
CTTCTTAA | 0.116
AGGGCGCG | -0.143

Sequence | PBM E-score
AGCAATTC | 0.0611
CCTCAGTC | -0.157
CCACCATC | -0.291
AAACTCAG | -0.00451
CGCCCGAA | -0.0571
ATTCCATA | 0.0418
CGATTTAC | -0.0171
AATGTTTA | -0.00152
ATTACCCA | 0.103
TCTTATCA | 0.267
ACTAGGTC | -0.129
GATCGCCC | 0.0373
ACAAGCTA | -0.0357
CGACGGCC | 0.0302
ACGAGCCG | 0.0438
AGGAATTC | -0.11
AAAACGCT | -0.0644
ACCGTCCA | 0.00248
CAACTATA | -0.0552
ACGGGGTG | -0.018
TGAATTAA | 0.139
AGATTGGG | 0.0333
CCTTCACC | -0.263
ACGTCAAT | -0.0902
AAAATTTC | 0.204

Sequence | PBM E-score
ATGCAGCA | 0.187
CAACGGTG | -0.164
CACCGCGA | 0.0204
GTCCTGCA | -0.184
ACATTTCG | -0.082
ATGGTCCG | 0.155
CCCCCCGA | -0.47
ATGCGGGC | -0.103
CGGTGTTA | -0.0163
ACATCAGT | 0.122
CAAGAAAC | 0.0259
ATGCACGC | 0.0656
CGTACAAC | -0.0151
TCCTACAA | -0.0246
AGTCGCAG | -0.0471
TGCCCACA | -0.221
GCCCCGTA | -0.177
CAACCCAA | -0.17
GGCCACTA | -0.0002
ACCAGGCT | -0.197
GGTTGGAA | -0.0209
ACGTTGTC | -0.00465

Some of the entries so far, as tab-separated lines:
Sequence	PBM E-score
TGCCCACA	-0.221
GCCCCGTA	-0.177
CAACCCAA	-0.17
GGCCACTA	-0.0002
ACCAGGCT	-0.197
GGTTGGAA	-0.0209

From the supplement of paper PMC3334620
